Results reported in publication PMC7309474.
These are yes or no findings as the source states them, for the method shown. Binding seen in cells or lysates may run through a third protein. Some entries that bind do so weakly or less than the wild type. Sequences can lack the tags named with a protein.

By UniProt entry, the sequences of proteins in these tests, tags left out.
UniProt P25054: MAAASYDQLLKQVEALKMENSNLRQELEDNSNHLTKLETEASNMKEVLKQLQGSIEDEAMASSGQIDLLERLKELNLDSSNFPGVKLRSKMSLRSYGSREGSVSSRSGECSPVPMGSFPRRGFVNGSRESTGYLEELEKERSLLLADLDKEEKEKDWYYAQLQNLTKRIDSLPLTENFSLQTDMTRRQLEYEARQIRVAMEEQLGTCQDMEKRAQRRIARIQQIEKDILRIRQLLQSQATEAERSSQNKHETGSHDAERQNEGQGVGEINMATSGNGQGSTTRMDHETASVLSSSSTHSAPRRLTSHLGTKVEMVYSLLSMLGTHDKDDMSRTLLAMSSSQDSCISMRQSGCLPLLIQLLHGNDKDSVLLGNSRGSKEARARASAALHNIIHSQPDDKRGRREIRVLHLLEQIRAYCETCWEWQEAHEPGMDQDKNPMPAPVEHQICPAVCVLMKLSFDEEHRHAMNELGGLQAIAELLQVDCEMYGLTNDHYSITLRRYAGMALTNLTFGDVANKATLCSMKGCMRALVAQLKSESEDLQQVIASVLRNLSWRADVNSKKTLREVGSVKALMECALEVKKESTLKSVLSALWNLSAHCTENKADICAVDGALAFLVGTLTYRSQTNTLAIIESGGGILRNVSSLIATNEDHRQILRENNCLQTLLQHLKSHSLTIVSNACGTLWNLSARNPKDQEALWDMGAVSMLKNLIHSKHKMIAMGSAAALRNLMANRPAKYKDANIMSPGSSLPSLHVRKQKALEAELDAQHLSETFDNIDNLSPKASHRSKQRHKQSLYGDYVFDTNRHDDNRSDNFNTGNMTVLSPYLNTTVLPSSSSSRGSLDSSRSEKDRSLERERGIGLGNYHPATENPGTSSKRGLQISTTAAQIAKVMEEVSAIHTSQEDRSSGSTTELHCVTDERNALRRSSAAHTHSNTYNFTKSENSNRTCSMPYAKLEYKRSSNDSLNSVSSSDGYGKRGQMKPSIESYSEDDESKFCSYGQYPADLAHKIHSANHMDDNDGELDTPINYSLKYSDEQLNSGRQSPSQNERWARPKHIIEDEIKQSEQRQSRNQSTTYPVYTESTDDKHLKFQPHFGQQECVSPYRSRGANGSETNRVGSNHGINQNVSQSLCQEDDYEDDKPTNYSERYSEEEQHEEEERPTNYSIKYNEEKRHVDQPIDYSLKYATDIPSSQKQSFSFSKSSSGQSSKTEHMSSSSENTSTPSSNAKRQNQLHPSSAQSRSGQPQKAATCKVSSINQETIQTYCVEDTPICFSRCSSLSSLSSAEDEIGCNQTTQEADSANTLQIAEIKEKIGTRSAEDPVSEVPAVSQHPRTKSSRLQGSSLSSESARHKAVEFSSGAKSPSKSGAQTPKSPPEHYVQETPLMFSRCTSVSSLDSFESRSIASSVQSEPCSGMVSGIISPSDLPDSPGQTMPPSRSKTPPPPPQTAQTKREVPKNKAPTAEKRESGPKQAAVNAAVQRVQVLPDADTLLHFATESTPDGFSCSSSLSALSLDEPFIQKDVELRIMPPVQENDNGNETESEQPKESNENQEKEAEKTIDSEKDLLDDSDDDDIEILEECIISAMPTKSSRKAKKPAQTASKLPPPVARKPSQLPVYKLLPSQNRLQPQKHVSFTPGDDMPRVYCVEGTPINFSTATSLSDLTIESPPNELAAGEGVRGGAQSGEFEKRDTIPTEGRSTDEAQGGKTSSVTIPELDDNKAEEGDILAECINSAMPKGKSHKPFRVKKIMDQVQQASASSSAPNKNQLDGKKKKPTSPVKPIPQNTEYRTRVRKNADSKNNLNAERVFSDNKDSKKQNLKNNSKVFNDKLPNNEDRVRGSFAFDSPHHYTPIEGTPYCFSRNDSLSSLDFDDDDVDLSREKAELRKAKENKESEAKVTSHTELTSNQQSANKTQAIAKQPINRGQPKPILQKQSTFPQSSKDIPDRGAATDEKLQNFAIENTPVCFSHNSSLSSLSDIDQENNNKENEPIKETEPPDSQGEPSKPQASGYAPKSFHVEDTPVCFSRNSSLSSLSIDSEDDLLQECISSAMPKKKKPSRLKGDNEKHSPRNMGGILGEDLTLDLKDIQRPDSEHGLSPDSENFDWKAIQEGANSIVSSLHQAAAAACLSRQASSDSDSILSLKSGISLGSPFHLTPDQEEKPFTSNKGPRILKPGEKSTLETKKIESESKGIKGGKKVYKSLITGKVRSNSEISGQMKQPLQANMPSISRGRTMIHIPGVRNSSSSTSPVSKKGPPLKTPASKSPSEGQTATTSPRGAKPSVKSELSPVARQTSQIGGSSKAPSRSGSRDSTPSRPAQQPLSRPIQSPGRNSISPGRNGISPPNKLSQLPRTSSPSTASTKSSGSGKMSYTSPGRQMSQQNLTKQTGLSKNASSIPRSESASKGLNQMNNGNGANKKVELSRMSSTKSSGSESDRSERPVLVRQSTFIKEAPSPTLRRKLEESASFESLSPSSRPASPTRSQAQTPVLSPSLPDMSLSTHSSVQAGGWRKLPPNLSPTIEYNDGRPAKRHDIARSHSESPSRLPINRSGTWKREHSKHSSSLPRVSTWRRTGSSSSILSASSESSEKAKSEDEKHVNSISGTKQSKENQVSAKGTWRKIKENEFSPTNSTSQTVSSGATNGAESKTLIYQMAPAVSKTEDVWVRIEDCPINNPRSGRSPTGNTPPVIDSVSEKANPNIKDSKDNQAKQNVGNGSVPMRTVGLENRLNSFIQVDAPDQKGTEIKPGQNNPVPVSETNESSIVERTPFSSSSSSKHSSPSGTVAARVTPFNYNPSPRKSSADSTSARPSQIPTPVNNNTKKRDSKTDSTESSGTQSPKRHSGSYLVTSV
UniProt P35222: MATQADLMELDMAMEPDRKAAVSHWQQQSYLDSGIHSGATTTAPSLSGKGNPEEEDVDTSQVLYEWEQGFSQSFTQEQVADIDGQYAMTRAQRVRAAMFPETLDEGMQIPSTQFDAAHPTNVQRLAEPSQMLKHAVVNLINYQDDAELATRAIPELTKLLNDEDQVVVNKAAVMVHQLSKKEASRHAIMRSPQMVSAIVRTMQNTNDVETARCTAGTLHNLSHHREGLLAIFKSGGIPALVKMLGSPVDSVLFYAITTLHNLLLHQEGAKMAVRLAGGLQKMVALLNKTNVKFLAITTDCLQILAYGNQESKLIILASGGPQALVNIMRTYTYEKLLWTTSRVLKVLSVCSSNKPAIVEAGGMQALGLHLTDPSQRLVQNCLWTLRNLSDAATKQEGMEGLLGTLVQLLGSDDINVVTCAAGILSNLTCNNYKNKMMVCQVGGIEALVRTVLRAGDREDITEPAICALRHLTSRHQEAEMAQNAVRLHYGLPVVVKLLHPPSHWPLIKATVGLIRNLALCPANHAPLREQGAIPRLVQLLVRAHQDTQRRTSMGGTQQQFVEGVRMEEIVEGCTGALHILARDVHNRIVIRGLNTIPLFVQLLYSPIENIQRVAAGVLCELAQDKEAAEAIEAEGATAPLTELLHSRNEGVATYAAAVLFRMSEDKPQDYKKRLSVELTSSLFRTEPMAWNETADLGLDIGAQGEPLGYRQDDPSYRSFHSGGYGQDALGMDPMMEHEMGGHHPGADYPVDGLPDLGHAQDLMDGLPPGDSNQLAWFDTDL

Key:
Experiment in all cases: co-IP; U2OS cells overexpressing KIF18B with a DDK tag (or Ctrl); 1% NP40 lysis buffer (150 mM NaCl, 50 mM Tris-HCl pH 7.4); ATF2, DDK, APC or β-catenin antibodies on protein A/G agarose, overnight with lysate; Western blot
[1] = biological target: T1, ATF2 (human (endogenous in U2OS)) (UniProt P15336)
T1 sequence: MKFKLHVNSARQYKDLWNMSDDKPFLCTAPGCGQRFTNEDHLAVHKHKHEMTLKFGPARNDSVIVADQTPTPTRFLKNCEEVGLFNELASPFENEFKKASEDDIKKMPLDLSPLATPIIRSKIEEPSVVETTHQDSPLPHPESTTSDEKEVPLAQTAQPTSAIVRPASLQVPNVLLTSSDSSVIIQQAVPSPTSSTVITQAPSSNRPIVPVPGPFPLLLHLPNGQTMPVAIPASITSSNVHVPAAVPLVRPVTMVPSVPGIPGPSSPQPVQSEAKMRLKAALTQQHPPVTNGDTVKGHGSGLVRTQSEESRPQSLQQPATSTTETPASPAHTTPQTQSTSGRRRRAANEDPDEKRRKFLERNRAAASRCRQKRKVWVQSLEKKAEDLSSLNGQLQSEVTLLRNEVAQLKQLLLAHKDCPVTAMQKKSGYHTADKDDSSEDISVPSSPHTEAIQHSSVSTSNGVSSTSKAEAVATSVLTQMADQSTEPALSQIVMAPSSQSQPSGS

[2] = biological target: adenomatous polyposis coli (APC) tumor suppressor (human (endogenous in U2OS)) (UniProt P25054)
[3] = biological target: β-catenin (human (endogenous in U2OS)) (UniProt P35222)

- binding [1]: binds
- binding [2]: binds
- binding [3]: no binding
B1: KIF18B with a DDK tag (protein, UniProt Q86Y91 1-852)
chain: MAVEDSTLQVVVRVRPPTPRELDSQRRPVVQVVDERVLVFNPEEPDGGFPGLKWGGTHDGPKKKGKDLTFVFDRVFGEAATQQDVFQHTTHSVLDSFLQGYNCSVFAYGATGAGKTHTMLGREGDPGIMYLTTVELYRRLEARQQEKHFEVLISYQEVYNEQIHDLLEPKGPLAIREDPDKGVVVQGLSFHQPASAEQLLEILTRGNRNRTQHPTDANATSSRSHAIFQIFVKQQDRVPGLTQAVQVAKMSLIDLAGSERASSTHAKGERLREGANINRSLLALINVLNALADAKGRKTHVPYRDSKLTRLLKDSLGGNCRTVMIAAISPSSLTYEDTYNTLKYADRAKEIRLSLKSNVTSLDCHISQYATICQQLQAEVAALRKKLQVYEGGGQPPPQDLPGSPKSGPPPEHQPCTPELPAGPRALQEESLGMEAQVERAMEGNSSDQEQSPEDEDEGPAEEVPTQMPEQNPTHALPESPRLTLQPKPVVGHFSARELDGDRSKQLALKVLCVAQRQYSLLQAANLLTPDMITEFETLQQLVQEEKIEPGAEALRTSGLARGAPLAQELCSESIPVPSPLCPEPPGYTGPVTRTMARRLSGPLHTLGIPPGPNCTPAQGSRWPMEKKRRRPSALEADSPMAPKRGTKRQRQSFLPCLRRGSLPDTQPSQGPSTPKGERASSPCHSPRVCPATVIKSRVPLGPSAMQNCSTPLALPTRDLNATFDLSEEPPSKPSFHECIGWDKIPQELSRLDQPFIPRAPVPLFTMKGPKPTSSLPGTSACKKKRVASSSVSHGRSRIARLPSSTLKRPAGPLVLPELPLSPLCPSNRRNGKDLIRVGRALSAGNGVTKVS
